Measurements taken from publication PMC4308083, “Cytokine-Induced Loss of Glucocorticoid Function: Effect of Kinase Inhibitors, Long-Acting β2-Adrenoceptor Agonist and Glucocorticoid Receptor Ligands” (PLoS ONE, 2015).

System: CDKN1C, DUSP1, RGS2 and TSC22D3 mRNA in BEAS-2B cells
Assay: RT-PCR of glucocorticoid-inducible gene expression in BEAS-2B cells

## COc1ccc(CC(C)NCC(O)c2ccc(O)c(NC=O)c2)cc1 (stereo not shown) [formoterol]
  Effect on dexamethasone-induced CDKN1C and RGS2 mRNA induction: significantly enhanced
